From US20250145646A1, “MACROCYCLIC COMPOUNDS AND DIAGNOSTIC USES THEREOF” (JANSSEN BIOTECH, INC., priority 2021, published 2025)

Assay: Chelation test with La3+ (HPLC retention time shift)
Type: physicochemical
Conditions: subsequent to mixing with La^3+

Row | SMILES | chelation of La^3+ indicated by shift in HPLC retention time
1 | CC(C)CCC(c1cccc(C(=O)O)n1)N1CCOCCOCCN(Cc2cccc(C(=O)O)n2)CCOCCOCC1 (centres unmarked) [TOPA-[C7]-isopentyl, 6-((16-(1-(6-carboxypyridin-2-yl)-4-methylpentyl)-1,4,10,13-tetraoxa-7,16-diazacyclooctadecan-7-yl)methyl)picolinic acid] | rapid chelation of La^3+
2 | O=C(O)c1cccc(CN2CCOCCOCCN(C(c3ccccc3)c3cccc(C(=O)O)n3)CCOCCOCC2)n1 (centres unmarked) [TOPA-[C7]-phenyl, 6-((16-((6-carboxypyridin-2-yl)(phenyl)methyl)-1,4,10,13-tetraoxa-7,16-diazacyclooctadecan-7-yl)methyl)picolinic acid] | rapid chelation of La^3+
